Several values for one entry are separate records, joined by “and”; a condition that tells them apart may be missing. Equal entries are not always repeated. Structures can show the parent of a compound that is named as a salt. The name of at least one read-out is uncertain.
Test system: ENR+CD organoids
Experiment: Primary screen: ATP (CellTiter-Glo 3D, CTG) cell number/viability, 2.5-D 384-well ENR+CD organoids;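 note: compounds given at plating and again on day 3 over a 6-day differentiation from ENR+CV stem-cell-enriched precursors, ATP measured on day 6, plate median as control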
[1] = primary screen, standard z score, dose 0.08 uM
[2] = primary screen, standard z score, dose 0.40 uM
[3] = primary screen, standard z score, dose 2.00 uM
[4] = primary screen, standard z score, dose 10.00 uM
[5] = primary screen, dose 0.08 uM, standard z score
[6] = primary screen, dose 0.40 uM, standard z score
[7] = primary screen, dose 2.00 uM, standard z score
[8] = primary screen, dose 10.00 uM, standard z score

Row | Compound | Z.CTG [5] | Z.CTG [6] | Z.CTG [7] | Z.CTG [8] | Z.CTG (standard z score) (primary screen, dose 0.08 uM) | Z.CTG (standard z score) (primary screen, dose 0.40 uM) | Z.CTG (standard z score) (primary screen, dose 2.00 uM) | Z.CTG (standard z score) (primary screen, dose 10.00 uM) | other results
1 | CCOC(=O)C1=C(C)NC(C)=C(C(=O)OC)C1c1cccc(Cl)c1Cl (stereo not shown) [Felodipine] | – | – | – | – | – | – | – | – | Z.CTG [1]: −0.187; Z.CTG [2]: −0.763; Z.CTG [3]: 0.025; Z.CTG [4]: 0.078
2 | COCCOc1ccc2c(c1)ncn2-c1ccc2cccc(N3CCC(N)CC3)c2n1 [CP-673451] | – | – | – | – | – | – | – | – | Z.CTG [1]: 0.166; Z.CTG [2]: 0.445; Z.CTG [3]: 0.018; Z.CTG [4]: −0.616
3 | COc1cc2c(cc1OC)[C@@H]1Cc3ccc(OC)c(OC)c3CN1CC2 [Rotundine] | 0.857 | 0.818 | 0.454 | 0.543 | – | – | – | – | SSMD.CTG (Table 5A primary screen; strictly standardized mean difference; four lines per treatment = four doses, dose not given): 1.221 and 1.197 and 0.656 and 0.621
4 | CN(C)CCOc1ccc(/C(=C(/CCCl)c2ccccc2)c2ccccc2)cc1 [Toremifene Citrate] | – | – | – | – | 0.822 | 0.285 | −2.417 | −3.335 | –
5 | CCN(CC)CC(=O)Nc1c(C)cccc1C [Lidocaine] | – | – | – | – | −0.188 | −0.365 | 0.081 | −0.611 | –
6 | O=C(O)/C=C/c1ccc(Cn2ccnc2)cc1 [Ozagrel] | 0.131 | 0.535 | −0.149 | 0.271 | – | – | – | – | –
7 | CC(C)N(CCCNC(=O)Nc1ccc(C(C)(C)C)cc1)C[C@H]1O[C@@H](n2cc(Br)c3c(N)ncnc32)[C@H](O)[C@@H]1O [SGC0946] | 0.124 | −0.290 | −0.197 | −0.340 | – | – | – | – | –
8 | C#CCC(Cc1cnc2nc(N)nc(N)c2n1)c1ccc(C(=O)N[C@@H](CCC(=O)O)C(=O)O)cc1 (stereo partly shown) [Pralatrexate] | −1.551 | −2.036 | −1.626 | −2.201 | – | – | – | – | –
9 | Oc1c2ccccc2c2c3c(cccc13)N=N2 [SP600125] | 0.471 | 0.347 | 0.246 | −0.047 | – | – | – | – | –
10 | Cc1ccccc1C(=O)Nc1ccc(C(=O)N2CCCC(N(C)C)c3ccccc32)cc1 (stereo not shown) [Mozavaptan] | 0.765 | 0.562 | 0.259 | −0.803 | – | – | – | – | –
11 | CCN(c1cc(-c2ccc(CN3CCOCC3)cc2)cc(C(=O)NCc2c(C)cc(C)[nH]c2=O)c1C)C1CCOCC1 [EPZ-6438] | – | – | – | – | – | – | – | – | Z.CTG [1]: 0.107; Z.CTG [2]: 0.178; Z.CTG [3]: −0.163; Z.CTG [4]: 0.802
12 | CCOC(=O)N1c2ccc(C(F)(F)F)cc2[C@@H](N(Cc2cc(C(F)(F)F)cc(C(F)(F)F)c2)C(=O)OC)C[C@H]1CC [Torcetrapib] | – | – | – | – | 0.677 | 0.147 | −0.289 | −0.360 | –
13 | Cc1cc2c(cc1CC(=O)c1sccc1S(=O)(=O)Nc1onc(C)c1Cl)OCO2 [Sitaxentan sodium] | 0.226 | −0.478 | −0.230 | −0.240 | – | – | – | – | –
14 | O=c1oc2cc(O)ccc2s1 [Tioxolone] | – | – | – | – | 0.586 | 0.212 | 0.105 | 0.783 | –
15 | CCOC(=O)C1=C(COCCN)NC(C)=C(C(=O)OC)C1c1ccccc1Cl (stereo not shown) [Amlodipine] | – | – | – | – | −0.837 | −0.866 | −0.888 | −1.006 | –
16 | COc1ccc2cccc(CCNC(C)=O)c2c1 [Agomelatine] | – | – | – | – | 0.252 | 0.193 | −0.472 | 0.056 | –
17 | COc1ccc2nc([S@@+]([O-])Cc3ncc(C)c(OC)c3C)[nH]c2c1 [Esomeprazole Sodium] | – | – | – | – | – | – | – | – | Z.CTG [1]: 0.689; Z.CTG [2]: 0.475; Z.CTG [3]: 0.923; Z.CTG [4]: 0.648

Row | Compound | Z.CTG [5] | Z.CTG [6] | Z.CTG [7] | Z.CTG [8] | Z.CTG (standard z score) (primary screen, dose 0.08 uM) | Z.CTG (standard z score) (primary screen, dose 0.40 uM) | Z.CTG (standard z score) (primary screen, dose 2.00 uM) | Z.CTG (standard z score) (primary screen, dose 10.00 uM) | other results
18 | COc1ccc([C@]2(C#N)CC[C@@H](C(=O)O)CC2)cc1OC1CCCC1 [Cilomilast] | – | – | – | – | – | – | – | – | Z.CTG [1]: −0.799; Z.CTG [2]: −0.807; Z.CTG [3]: −0.562; Z.CTG [4]: −0.458
19 | Cn1c(N2CCCCS2(=O)=O)nc(C(=O)NCc2ccc(F)cc2)c(O)c1=O [BMS-707035] | – | – | – | – | 0.759 | 0.568 | 0.667 | 0.330 | –
20 | CNCc1ccc(-c2cc(-c3nc(-c4ccc(S(=O)(=O)C(C)C)cc4)cnc3N)on2)cc1 [VE-822] | – | – | – | – | −0.351 | −0.685 | −1.713 | −4.212 | –
21 | NC(=O)c1ncn([C@@H]2O[C@H](CO)[C@@H](O)[C@H]2O)c1N [Acadesine] | – | – | – | – | 0.225 | 0.413 | −0.012 | 0.182 | –
22 | CC(=O)Nc1nc2c(Oc3cc(-c4ccc(C(F)(F)F)cc4)ncn3)cccc2s1 [AMG-517] | – | – | – | – | 0.385 | 0.269 | 0.268 | 0.135 | –
23 | Cc1ccccc1C(=O)Nc1ccc(C(=O)N2CCCC(O)c3cc(Cl)ccc32)c(C)c1 (stereo not shown) [Tolvaptan] | – | – | – | – | 0.227 | −0.019 | −0.225 | −0.249 | –
24 | CCOC(=O)N1CCC(=C2c3ccc(Cl)cc3CCc3cccnc32)CC1 [Loratadine] | – | – | – | – | −0.697 | 0.347 | −0.488 | −0.287 | –
25 | O=S(=O)(c1ccccc1)N(CC(F)(F)F)c1ccc(C(O)(C(F)(F)F)C(F)(F)F)cc1 [T0901317] | 0.112 | 0.426 | 0.228 | 0.272 | – | – | – | – | –
26 | CCCCCCCCCCCC1=C(O)C(=O)C=C(O)C1=O [Embelin] | – | – | – | – | – | – | – | – | Z.CTG [1]: −0.770; Z.CTG [2]: −1.728; Z.CTG [3]: −0.776; Z.CTG [4]: −1.720
27 | CC1=C(/C=C/C(C)=C/C=C/C(C)=C\C(=O)O)C(C)(C)CCC1 [Isotretinoin] | – | – | – | – | 0.982 | 0.965 | 0.604 | 0.331 | –
28 | Cc1cc(C(C)(C)C)c(O)c(C)c1CC1=NCCN1 [Oxymetazoline HCl] | 0.340 | 0.281 | −0.016 | 0.282 | – | – | – | – | –
29 | COc1ccc(-c2nc3ccc(C4=NNC(=O)CC4C)cc3[nH]2)cc1 (stereo not shown) [Pimobendan] | −0.053 | 0.460 | 0.492 | 0.333 | – | – | – | – | –
30 | O=C(NC[C@H]1CN(c2ccc(N3CCOCC3=O)cc2)C(=O)O1)c1ccc(Cl)s1 [Rivaroxaban] | 0.050 | 0.466 | 0.123 | 0.104 | – | – | – | – | –
31 | COc1ccc(C(=O)N2CCCC2=O)cc1 [Aniracetam] | – | – | – | – | −0.211 | 0.267 | 0.130 | 0.045 | –
32 | CCCCN1CCCCC1C(=O)Nc1c(C)cccc1C (stereo not shown) [Bupivacaine HCl] | – | – | – | – | −0.008 | – | – | – | Z.CTG [2]: −0.517; Z.CTG [3]: −0.717; Z.CTG [4]: −0.870
33 | CC(NC(=O)c1ccccc1/N=C/c1c(O)ccc2ccccc12)c1ccccc1 (stereo not shown) [Sirtinol] | −0.520 | 0.022 | −0.287 | −0.186 | – | – | – | – | –

Source: US20220323406A1, “METHODS AND COMPOSITIONS FOR DIFFERENTIATING STEM CELLS” (Massachusetts Institute of Technology, priority 2019, published 2022)
